These are yes or no findings as the source states them, for the method shown. In cells and extracts the contact can be indirect. Some binding calls cover weakened binding; strength is not graded here.

The chains behind the UniProt entries cited, without tags or fusion partners. Where a name states a change or a piece, a line headed by the entry shows the natural chain unless it says otherwise.
UniProt P16045: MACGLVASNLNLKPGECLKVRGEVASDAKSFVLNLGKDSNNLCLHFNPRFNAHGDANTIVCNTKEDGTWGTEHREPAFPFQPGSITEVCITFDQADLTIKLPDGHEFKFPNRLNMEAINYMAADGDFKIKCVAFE
UniProt P01731: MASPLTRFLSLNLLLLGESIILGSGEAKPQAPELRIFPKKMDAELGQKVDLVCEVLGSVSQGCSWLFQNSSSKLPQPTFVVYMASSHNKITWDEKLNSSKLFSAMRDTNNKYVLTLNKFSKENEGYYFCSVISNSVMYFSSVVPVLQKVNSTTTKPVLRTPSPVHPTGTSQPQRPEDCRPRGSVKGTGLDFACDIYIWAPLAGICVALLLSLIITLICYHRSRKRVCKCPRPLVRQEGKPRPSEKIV

The target of this test is recombinant Galectin-1 coupled with sepharose beads (UniProt P16045). The test is described as follows: pull-down.

On to “CD8α/β of wild-type control OT-1 CD8+ T-cells (from UniProt P01731 28-247; P10300 22-213) (complex)”, for which the binding result was “binds”.

For the origin of these results see publication doi:10.1101/2023.12.19.572484.
